In patent publication US7504403B2, “Substituted heterocyclic compounds and methods of use” (Amgen Inc., priority 2004, dated 2009):
Some of these results come from one statement about several compounds together.

test system: LPS induced TNF release; experiment: Lipopolysaccharide-Activated THP1 Cell TNF Production Assay; type: cell-based, human
Experimental: Lipopolysaccharide-Activated THP1 Cell TNF Production Assay
THP1 cells are resuspended in fresh THP1 media (RPMI 1640, 10% heat-inactivated FBS, 1×PGS, 1×NEAA, plus 30 μM βME) at a concentration of 1E6/mL. One hundred microliters of cells per well are plated in a polystyrene 96-well tissue culture. One microgram per mL of bacterial LPS is prepared in THP1 media and is transferred to the wells. Test compounds are dissolved in 100% DMSO and are serially diluted 3 fold in a polypropylene 96-well microtiter plate (drug plate). HI control and LO control wells contain only DMSO. One microliter of test compound from the drug plate followed by 10 μL of LPS are transferred to the cell plate. The treated cells are induced to synthesize and secrete TNF-α at 37° C. for 3 h. Forty microliters of conditioned media are transferred to a 96-well polypropylene plate containing 110 μL of ECL buffer (50 mM Tris-HCl pH 8.0, 100 mM NaCl, 0.05% Tween 20, 0.05% NaN3 and 1%FBS) supplemented with 0.44 nM MAB610 monoclonal Ab (R&D Systems), 0.34 nM ruthenylated AF210NA polyclonal Ab (R&D Systems) and 44 μg/mL sheep anti-mouse M280 Dynabeads (Dynal). After a 2 h incubation at room temperature with shaking, the reaction is read on the ECL M8 Instrument (IGEN Inc.). A low voltage is applied to the ruthenylated TNF-α immune complexes, which in the presence of TPA (the active component in Origlo), results in a cyclical redox reaction generating light at […]. The amount of secreted TNF-α in the presence of compound compared with that in the presence of DMSO vehicle alone (HI control) is calculated using the formula: % control (POC)=(cpd−average LO)/(average HI−average LO)*100. Data (consisting of POC and inhibitor concentration in μM) is fitted to a 4-parameter equation (y=A+((B−A)/(1+((x/C)^D))), where A is the minimum y (POC) value, B is the maximum y (POC), C is the x (cpd concentration) at the point of inflection and D is the slope factor) using a Levenburg-Marquardt non-linear regression algorithm.

IC50, ≤ 20 µM:
2-(4-pyridyl)-9-[2-(1(S)-phenyl-ethylamino)-pyrimidin -4-yl]-6,7,8,9-tetrahydro-pyrimido[1,2-a]pyrimidin-4-one [Example 9]
2-(phenyl)-9-[2-(1(S)-phenyl-ethylamino)-pyrimidin-4-yl]-6,7,8,9-tetrahydro-pyrimido[1,2-a]pyrimidin-4-one [Example 10]
3-methyl-9-{2-[1-(S)-phenylethyl]-pyrimidin-4-yl}-2-phenyl-6,7,8,9-tetrahydro-pyrimido[1,2-a]pyrimidin-4-one [Example 16]
9-(2-{2-(ethyl-1(S)-isopropyl-2-ol)amino}-pyrimidin -4-yl)-2-phenyl-6,7,8,9-tetrahydro-pyrimido[1,2-a]pyrimidin-4-one [Example 25]
C[C@H](Nc1nccc(N2CCCn3c2nc(-c2cccc(N(C)C)c2)cc3=O)n1)c1ccccc1 [Example 8, 2-(3-dimethylaminephenyl)-9-[2-(1(S)-phenyl-ethylamino) -pyrimidin-4-yl]-6,7,8,9-tetrahydro-pyrimido[1,2-a]pyrimidin-4-one]
Nc1c(-c2ccccc2)nc2n(c1=O)CCCC2c1ccnc(CCc2ccccc2Cl)n1 (stereo not shown) [Example 17, 3-amino-9-{2-[ethyl-2-(2-chlorophenyl)]-pyrimidin-4-yl}-2-phenyl-6,7,8,9-tetrahydro-pyrido[1,2-a]pyrimidin-4-one]
O=c1cc(-c2ccccc2)nc2n1CCCN2c1ccnc(NCCO)n1 [Example 20, 9-(2-{2-(2-hydroxyethyl)amino}-pyrimidin-4-yl)-2-phenyl-6,7,8,9-tetrahydro-pyrimido[1,2-a]pyrimidin-4-one]
O=c1cc(-c2ccccc2)nc2n1CCCN2c1ccnc(NCCN2CCOCC2)n1 [Example 21, 9-(2-{2-(ethyl-2-morpholino)amino}-pyrimidin-4-yl)-2-phenyl-6,7,8,9-tetrahydro-pyrimido[1,2-a]pyrimidin-4-one]
CC(C)CNc1nccc(N2CCCn3c2nc(-c2ccccc2)cc3=O)n1 [Example 22, 9-(2-{2-(-propyl-2-methyl)amino}-pyrimidin-4-yl)-2-phenyl-6,7,8,9-tetrahydro-pyrimido[1,2-a]pyrimidin-4-one]
COCCNc1nccc(N2CCCn3c2nc(-c2ccccc2)cc3=O)n1 [Example 23, 9-(2-{2-(ethyl-2-methoxy)amino}-pyrimidin-4-yl)-2-phenyl-6,7,8,9-tetrahydro-pyrimido[1,2-a]pyrimidin-4-one]
C[C@@H](CO)Nc1nccc(N2CCCn3c2nc(-c2ccccc2)cc3=O)n1 [Example 24, 9-(2-{2-(ethyl-1(S)-methyl-2-ol)amino}-pyrimidin-4-yl)-2-phenyl-6,7,8,9-tetrahydro-pyrimido[1,2-a]pyrimidin-4-one]
O=c1cc(-c2ccccc2)nc2n1CCCN2c1ccnc(NCCOc2ccccc2)n1 [Example 26, 9-(2-{2-(ethyl-2-phenoxy)amino}-pyrimidin-4-yl)-2-phenyl-6,7,8,9-tetrahydro-pyrimido[1,2-a]pyrimidin-4-one]
CN(C)CC(C)(C)CNc1nccc(N2CCCn3c2nc(-c2ccccc2)cc3=O)n1 [Example 27, 9-(2-{2-(propyl-2,2-dimethyl-3-dimethylamino)amino}-pyrimidin-4-yl)-2-phenyl-6,7,8,9-tetrahydro-pyrimido[1,2-a]pyrimidin-4-one]
Nc1ccccc1CCNc1nccc(N2CCCn3c2nc(-c2ccccc2)cc3=O)n1 [Example 28, 9-(2-{2-(ethyl-2-aminophenyl)amino}-pyrimidin-4-yl)-2-phenyl-6,7,8,9-tetrahydro-pyrimido[1,2-a]pyrimidin-4-one]
O=c1cc(-c2ccccc2)nc2n1CCCN2c1ccnc(NCCCc2ccccc2)n1 [Example 30, 9-(2-{2-(propyl-3-phenyl)amino}-pyrimidin-4-yl)-2-phenyl-6,7,8,9-tetrahydro-pyrimido[1,2-a]pyrimidin-4-one]
N[C@H](CNc1nccc(N2CCCn3c2nc(-c2ccccc2)cc3=O)n1)Cc1ccccc1 [Example 31, 9-(2-{2-(propyl-2(S)-amino-3-phenyl)amino}-pyrimidin-4-yl)-2-phenyl-6,7,8,9-tetrahydro-pyrimido[1,2-a]pyrimidin-4-one]
O=c1cc(-c2ccccc2)nc2n1CCCN2c1ccnc(NCCc2ccccc2Cl)n1 [Example 32, 9-(2-{2-(ethyl-2-(2-chlorophenyl))amino}-pyrimidin-4-yl)-2-phenyl-6,7,8,9-tetrahydro-pyrimido[1,2-a]pyrimidin-4-one]
COc1ccccc1CCNc1nccc(N2CCCn3c2nc(-c2ccccc2)cc3=O)n1 [Example 33, 9-(2-{2-(ethyl-2-(2-methoxyphenyl))amino}-pyrimidin-4-yl)-2-phenyl-6,7,8,9-tetrahydro-pyrimido[1,2-a]pyrimidin-4-one]
COc1ccc(CCNc2nccc(N3CCCn4c3nc(-c3ccccc3)cc4=O)n2)cc1 [Example 34, 9-(2-{2-(ethyl-2-(4-methoxyphenyl))amino}-pyrimidin-4-yl)-2-phenyl-6,7,8,9-tetrahydro-pyrimido[1,2-a]pyrimidin-4-one]
Cc1ccc(CCNc2nccc(N3CCCn4c3nc(-c3ccccc3)cc4=O)n2)cc1 [Example 35, 9-(2-{2-(ethyl-2-(4-methylphenyl))amino}-pyrimidin-4-yl)-2-phenyl-6,7,8,9-tetrahydro-pyrimido[1,2-a]pyrimidin-4-one]
O=c1cc(-c2ccccc2)nc2n1CCCN2c1ccnc(NCCc2ccc(O)cc2)n1 [Example 36, 9-(2-{2-(ethyl-2-(4-hydroxyphenyl))amino}-pyrimidin-4-yl)-2-phenyl-6,7,8,9-tetrahydro-pyrimido[1,2-a]pyrimidin-4-one]
Cc1ccc(CCNc2nccc(N3CCCn4c3nc(-c3ccccc3)cc4=O)n2)cc1C [Example 37, 9-(2-{2-(ethyl-2-(3,4-dimethylphenyl))amino}-pyrimidin-4-yl)-2-phenyl-6,7,8,9-tetrahydro-pyrimido[1,2-a]pyrimidin-4-one]
O=c1cc(-c2ccccc2)nc2n1CCCN2c1ccnc(NCC(O)c2ccccc2)n1 (stereo not shown) [Example 39, 9-(2-{2-(ethyl-2-phenyl-2-ol)amino}-pyrimidin-4-yl) -2-phenyl-6,7,8,9-tetrahydro-pyrimido[1,2-a]pyrimidin-4-one]
O=C(CNc1nccc(N2CCCn3c2nc(-c2ccccc2)cc3=O)n1)c1ccccc1 [Example 40, 9-(2-{2-(ethyl-2-keto-2-phenyl)amino}-pyrimidin-4-yl)-2-phenyl-6,7,8,9-tetrahydro-pyrimido[1,2-a]pyrimidin-4-one]
CCC(Nc1nccc(N2CCCn3c2nc(-c2ccccc2)cc3=O)n1)c1ccccc1 (stereo not shown) [Example 41, 9-(2-{2-(propyl-1-phenyl)amino}-pyrimidin-4-yl)-2-phenyl-6,7,8,9-tetrahydro-pyrimido[1,2-a]pyrimidin-4-one]
NC(=O)C(Cc1ccccc1)Nc1nccc(N2CCCn3c2nc(-c2ccccc2)cc3=O)n1 (stereo not shown) [Example 42, 9-(2-{2-(ethyl-1-amido-2-phenyl)amino}-pyrimidin-4-yl)-2-phenyl-6,7,8,9-tetrahydro-pyrimido[1,2-a]pyrimidin-4-one]
C[C@@H](Cc1ccccc1)Nc1nccc(N2CCCn3c2nc(-c2ccccc2)cc3=O)n1 [Example 43, 9-(2-{2-(ethyl-1(S)methyl-2-phenyl)amino}-pyrimidin-4-yl)-2-phenyl-6,7,8,9-tetrahydro-pyrimido[1,2-a]pyrimidin-4-one]
CC(Cc1cccc(N)c1)Nc1nccc(N2CCCn3c2nc(-c2ccccc2)cc3=O)n1 (stereo not shown) [Example 45, 9-(2-{2-(ethyl-1-methyl-2-(3-aminophenyl))amino}-pyrimidin-4-yl)-2-phenyl-6,7,8,9-tetrahydro-pyrimido[1,2-a]pyrimidin-4-one]
CC(Cc1cccc(C#N)c1)Nc1nccc(N2CCCn3c2nc(-c2ccccc2)cc3=O)n1 (stereo not shown) [Example 46, 9-(2-{2-(ethyl-1-methyl-2-(3-cyanophenyl))amino}-pyrimidin-4-yl)-2-phenyl-6,7,8,9-tetrahydro-pyrimido[1,2-a]pyrimidin-4-one]
O=c1cc(-c2ccccc2)nc2n1CCCN2c1ccnc(NCCc2ccccc2)n1 [Example 48, 9-(2-{2-(ethyl-2-phenyl)amino}-pyrimidin-4-yl)-2-phenyl-6,7,8,9-tetrahydro-pyrimido[1,2-a]pyrimidin-4-one]
O=c1cc(-c2ccccc2)nc2n1CC(CCNCc1ccccc1)CN2c1ccnc(NCCc2ccccc2)n1 (stereo not shown) [Example 53, 7-(ethyl-2-amino(N-benzyl))-9-(2-phenethylamino-pyrimidin-4-yl) -2-phenyl-6,7,8,9-tetrahydro-pyrimido[1,2-a]pyrimidin-4-one]
